Results reported in the supplement of paper PMC12067093, “Discovery and optimisation of a covalent ligand for TRIM25 and its application to targeted protein ubiquitination” (Chemical Science, 2025).
The list shows a part of the results.

By UniProt entry, the sequences of proteins in these tests, tags left out. Where a name states a change or a piece, a line headed by the entry shows the natural chain unless it says otherwise.
UniProt O95758: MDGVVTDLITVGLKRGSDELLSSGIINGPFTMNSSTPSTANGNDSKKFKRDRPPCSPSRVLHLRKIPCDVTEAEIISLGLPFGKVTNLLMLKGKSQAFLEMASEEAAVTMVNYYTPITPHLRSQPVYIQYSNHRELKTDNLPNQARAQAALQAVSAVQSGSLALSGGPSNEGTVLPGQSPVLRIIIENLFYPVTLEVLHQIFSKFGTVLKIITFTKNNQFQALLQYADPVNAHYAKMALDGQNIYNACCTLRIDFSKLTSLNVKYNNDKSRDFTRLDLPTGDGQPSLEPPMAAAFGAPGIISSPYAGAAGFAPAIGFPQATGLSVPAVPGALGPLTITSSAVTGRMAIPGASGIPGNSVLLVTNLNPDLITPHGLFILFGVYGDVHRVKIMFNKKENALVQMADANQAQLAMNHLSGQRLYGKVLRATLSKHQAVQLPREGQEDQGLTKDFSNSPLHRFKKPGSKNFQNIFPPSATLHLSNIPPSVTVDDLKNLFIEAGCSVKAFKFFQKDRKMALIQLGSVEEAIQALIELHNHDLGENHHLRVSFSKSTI
UniProt Q15185: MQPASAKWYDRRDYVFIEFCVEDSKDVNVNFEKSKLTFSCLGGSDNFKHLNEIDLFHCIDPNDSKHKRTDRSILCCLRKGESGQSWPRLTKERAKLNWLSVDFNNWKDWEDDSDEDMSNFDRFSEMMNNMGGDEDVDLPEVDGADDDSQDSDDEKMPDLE
UniProt P23470: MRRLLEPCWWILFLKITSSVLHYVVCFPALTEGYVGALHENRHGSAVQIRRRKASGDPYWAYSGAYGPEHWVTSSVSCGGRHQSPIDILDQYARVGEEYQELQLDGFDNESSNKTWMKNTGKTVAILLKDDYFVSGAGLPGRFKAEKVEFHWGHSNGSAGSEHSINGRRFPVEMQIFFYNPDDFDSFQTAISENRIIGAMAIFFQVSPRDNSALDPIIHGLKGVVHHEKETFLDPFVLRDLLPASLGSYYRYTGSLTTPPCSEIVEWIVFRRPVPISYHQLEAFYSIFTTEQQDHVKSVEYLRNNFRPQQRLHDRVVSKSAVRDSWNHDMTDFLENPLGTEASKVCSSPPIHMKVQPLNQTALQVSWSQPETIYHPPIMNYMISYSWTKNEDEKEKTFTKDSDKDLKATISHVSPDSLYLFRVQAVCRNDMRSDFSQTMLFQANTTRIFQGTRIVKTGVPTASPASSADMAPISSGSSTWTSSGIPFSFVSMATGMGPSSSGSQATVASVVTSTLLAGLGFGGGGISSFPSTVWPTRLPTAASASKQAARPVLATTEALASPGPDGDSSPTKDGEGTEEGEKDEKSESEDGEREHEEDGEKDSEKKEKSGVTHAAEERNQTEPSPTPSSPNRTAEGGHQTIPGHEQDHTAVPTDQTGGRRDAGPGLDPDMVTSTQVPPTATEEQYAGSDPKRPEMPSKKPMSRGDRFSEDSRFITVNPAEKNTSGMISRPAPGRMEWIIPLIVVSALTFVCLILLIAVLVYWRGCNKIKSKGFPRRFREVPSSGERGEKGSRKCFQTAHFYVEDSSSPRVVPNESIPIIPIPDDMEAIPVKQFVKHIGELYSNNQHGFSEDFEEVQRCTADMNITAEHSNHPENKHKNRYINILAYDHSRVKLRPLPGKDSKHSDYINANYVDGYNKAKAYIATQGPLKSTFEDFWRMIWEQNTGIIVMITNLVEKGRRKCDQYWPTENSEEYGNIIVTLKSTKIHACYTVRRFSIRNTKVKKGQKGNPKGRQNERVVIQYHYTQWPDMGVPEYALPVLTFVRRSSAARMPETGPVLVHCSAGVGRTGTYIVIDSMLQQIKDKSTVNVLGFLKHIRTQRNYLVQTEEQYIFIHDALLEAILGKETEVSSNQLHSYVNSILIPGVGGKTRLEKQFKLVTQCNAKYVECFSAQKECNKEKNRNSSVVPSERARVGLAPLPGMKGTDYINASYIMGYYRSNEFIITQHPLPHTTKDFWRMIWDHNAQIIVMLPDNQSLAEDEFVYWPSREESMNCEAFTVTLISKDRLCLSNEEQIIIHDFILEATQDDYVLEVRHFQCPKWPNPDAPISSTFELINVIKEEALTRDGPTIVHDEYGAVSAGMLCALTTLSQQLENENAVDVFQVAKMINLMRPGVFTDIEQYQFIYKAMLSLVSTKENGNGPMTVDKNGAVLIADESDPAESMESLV
UniProt P28062: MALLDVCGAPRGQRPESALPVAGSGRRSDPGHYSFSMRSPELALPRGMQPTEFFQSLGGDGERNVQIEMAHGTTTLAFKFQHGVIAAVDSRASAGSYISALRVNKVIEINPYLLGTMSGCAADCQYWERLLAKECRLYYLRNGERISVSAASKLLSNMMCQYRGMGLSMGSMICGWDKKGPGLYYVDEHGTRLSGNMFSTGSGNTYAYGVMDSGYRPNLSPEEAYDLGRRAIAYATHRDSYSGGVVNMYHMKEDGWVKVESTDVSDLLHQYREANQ
UniProt Q15397: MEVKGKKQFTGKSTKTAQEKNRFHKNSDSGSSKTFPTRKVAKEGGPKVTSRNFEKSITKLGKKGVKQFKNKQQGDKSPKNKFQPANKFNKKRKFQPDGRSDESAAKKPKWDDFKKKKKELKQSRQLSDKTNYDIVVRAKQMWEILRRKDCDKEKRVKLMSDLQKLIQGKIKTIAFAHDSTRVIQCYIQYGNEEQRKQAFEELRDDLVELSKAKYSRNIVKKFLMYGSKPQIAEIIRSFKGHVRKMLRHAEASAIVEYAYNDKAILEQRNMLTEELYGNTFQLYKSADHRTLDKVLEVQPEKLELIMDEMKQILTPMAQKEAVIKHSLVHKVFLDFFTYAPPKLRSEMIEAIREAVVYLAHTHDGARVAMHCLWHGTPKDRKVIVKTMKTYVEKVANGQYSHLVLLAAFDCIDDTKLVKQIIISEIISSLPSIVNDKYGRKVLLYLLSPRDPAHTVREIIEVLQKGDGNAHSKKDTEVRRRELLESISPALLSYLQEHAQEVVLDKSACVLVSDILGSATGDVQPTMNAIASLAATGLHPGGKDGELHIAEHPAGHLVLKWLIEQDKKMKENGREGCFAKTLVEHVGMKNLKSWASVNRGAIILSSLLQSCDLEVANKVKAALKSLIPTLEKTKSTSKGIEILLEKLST
UniProt P08575: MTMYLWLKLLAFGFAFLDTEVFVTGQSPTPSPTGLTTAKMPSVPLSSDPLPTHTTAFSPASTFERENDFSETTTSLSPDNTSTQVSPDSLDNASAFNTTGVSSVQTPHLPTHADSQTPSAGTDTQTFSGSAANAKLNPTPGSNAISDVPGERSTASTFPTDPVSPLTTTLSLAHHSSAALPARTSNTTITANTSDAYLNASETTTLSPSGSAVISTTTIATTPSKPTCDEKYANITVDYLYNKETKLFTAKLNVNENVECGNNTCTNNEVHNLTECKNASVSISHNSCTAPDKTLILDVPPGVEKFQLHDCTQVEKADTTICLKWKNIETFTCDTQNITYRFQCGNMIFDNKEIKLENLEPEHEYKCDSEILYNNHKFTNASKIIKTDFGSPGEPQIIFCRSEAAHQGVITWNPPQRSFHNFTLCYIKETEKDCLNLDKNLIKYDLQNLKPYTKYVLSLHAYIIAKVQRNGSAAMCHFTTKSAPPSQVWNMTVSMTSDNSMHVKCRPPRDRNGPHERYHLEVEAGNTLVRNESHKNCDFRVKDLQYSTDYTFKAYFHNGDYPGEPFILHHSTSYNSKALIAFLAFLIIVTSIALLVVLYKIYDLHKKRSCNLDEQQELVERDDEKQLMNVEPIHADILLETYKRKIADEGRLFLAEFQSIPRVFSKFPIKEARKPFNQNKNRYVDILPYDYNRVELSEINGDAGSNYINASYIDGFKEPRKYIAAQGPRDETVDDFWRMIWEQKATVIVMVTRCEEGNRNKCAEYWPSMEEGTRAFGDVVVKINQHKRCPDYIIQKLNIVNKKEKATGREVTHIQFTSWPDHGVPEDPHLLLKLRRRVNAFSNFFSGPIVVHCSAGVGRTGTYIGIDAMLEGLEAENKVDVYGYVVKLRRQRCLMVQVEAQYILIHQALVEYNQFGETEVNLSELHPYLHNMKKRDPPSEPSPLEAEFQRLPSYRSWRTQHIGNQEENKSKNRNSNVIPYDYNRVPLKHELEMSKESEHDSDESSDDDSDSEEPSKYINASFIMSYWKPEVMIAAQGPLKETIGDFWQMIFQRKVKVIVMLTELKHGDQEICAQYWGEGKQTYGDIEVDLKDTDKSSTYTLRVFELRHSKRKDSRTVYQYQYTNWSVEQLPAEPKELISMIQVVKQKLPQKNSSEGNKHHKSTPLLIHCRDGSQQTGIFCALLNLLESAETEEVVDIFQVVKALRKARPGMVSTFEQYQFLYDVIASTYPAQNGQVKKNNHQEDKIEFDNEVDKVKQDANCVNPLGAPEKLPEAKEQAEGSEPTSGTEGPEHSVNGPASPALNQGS
UniProt Q3MIT2: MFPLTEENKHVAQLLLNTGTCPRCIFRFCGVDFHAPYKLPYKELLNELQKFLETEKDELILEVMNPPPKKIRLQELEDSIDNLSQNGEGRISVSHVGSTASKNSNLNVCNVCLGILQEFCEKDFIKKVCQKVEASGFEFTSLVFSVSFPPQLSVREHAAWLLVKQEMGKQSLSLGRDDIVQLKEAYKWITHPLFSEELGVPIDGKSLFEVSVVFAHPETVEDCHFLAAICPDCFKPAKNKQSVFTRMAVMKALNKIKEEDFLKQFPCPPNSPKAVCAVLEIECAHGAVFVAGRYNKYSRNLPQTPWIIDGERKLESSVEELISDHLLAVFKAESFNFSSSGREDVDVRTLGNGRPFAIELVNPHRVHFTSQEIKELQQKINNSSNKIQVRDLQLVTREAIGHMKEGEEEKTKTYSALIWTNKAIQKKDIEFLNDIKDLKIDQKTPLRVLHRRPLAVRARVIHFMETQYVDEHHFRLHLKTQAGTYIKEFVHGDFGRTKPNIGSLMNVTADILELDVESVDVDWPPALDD
UniProt Q05209: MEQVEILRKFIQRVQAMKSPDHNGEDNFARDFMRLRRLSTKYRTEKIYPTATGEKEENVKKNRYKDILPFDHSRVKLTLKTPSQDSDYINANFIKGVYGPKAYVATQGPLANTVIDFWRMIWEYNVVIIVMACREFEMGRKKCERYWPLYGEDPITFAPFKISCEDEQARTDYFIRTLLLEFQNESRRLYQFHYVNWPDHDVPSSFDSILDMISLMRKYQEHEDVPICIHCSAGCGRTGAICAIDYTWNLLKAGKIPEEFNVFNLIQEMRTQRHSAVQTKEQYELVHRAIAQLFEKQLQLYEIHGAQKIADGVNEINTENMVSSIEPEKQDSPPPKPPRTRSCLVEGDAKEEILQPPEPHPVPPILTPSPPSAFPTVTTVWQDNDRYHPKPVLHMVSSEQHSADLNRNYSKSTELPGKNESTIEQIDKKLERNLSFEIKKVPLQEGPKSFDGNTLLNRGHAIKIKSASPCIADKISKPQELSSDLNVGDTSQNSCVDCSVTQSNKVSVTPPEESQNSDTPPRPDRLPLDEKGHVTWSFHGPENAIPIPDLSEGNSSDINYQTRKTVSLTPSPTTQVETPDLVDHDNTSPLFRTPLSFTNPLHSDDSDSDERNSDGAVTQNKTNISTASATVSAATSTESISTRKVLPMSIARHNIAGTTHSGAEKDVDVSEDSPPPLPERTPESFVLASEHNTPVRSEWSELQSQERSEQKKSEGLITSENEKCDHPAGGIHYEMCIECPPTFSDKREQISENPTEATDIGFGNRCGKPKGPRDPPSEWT
UniProt P35236: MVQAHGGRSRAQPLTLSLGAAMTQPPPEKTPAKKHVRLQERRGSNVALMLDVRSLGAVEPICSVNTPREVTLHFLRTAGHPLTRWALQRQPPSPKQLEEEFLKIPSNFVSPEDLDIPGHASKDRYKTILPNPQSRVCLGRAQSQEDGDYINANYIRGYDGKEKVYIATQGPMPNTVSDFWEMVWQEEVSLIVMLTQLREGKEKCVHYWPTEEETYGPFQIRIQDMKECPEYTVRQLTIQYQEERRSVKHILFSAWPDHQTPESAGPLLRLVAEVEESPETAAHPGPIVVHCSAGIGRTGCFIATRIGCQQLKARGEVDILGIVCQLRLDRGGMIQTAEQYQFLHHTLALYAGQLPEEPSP
UniProt P35998: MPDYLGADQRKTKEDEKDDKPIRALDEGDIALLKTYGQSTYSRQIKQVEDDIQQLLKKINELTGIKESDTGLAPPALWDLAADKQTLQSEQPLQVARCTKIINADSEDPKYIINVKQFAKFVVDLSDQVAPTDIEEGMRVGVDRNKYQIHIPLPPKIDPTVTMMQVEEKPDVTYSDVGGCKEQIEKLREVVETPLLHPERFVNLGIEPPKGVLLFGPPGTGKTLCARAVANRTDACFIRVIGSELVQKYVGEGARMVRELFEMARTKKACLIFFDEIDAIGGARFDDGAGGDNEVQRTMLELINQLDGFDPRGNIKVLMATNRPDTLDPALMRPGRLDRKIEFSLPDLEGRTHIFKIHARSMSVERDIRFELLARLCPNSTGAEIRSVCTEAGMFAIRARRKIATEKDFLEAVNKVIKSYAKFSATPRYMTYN

Compound: Cc1cc(ccc1-c1ccccc1)C(=O)N1CCCN(CC1)C(=O)CCl [compound 10]
Assay: probe-labelled cysteine peptide fold change vs DMSO (competition) (log2 fold change); higher = less target engagement (more negative = stronger competition)
Conditions: THP-1, incubation time: 4 h
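Further: competitive profiling in live THP-1 cells: cysteine peptides tagged with an iodoacetamide desthiobiotin (IA-DTB) probe, intensity after compound treatment relative to DMSO-treated cells.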

| Target | probe-labelled cysteine peptide fold change (10 µM) | probe-labelled cysteine peptide fold change (50 µM) |
| --- | --- | --- |
| PSMD14_O00487_120_QTGRPEMVVGWYHSHPGFGCWLSGVDINTQQSFEALSER (UniProt O00487) | 0.00935 | 0.0662 |
| PTBP3_O95758_500_NLFIEAGCSVK (UniProt O95758) | 0.0792 | 0.0833 |
| PSMD4_P55036_37_LQAQQDAVNIVCHSK (UniProt P55036) | -0.141 | -0.273 |
| PTGES3_Q15185_58_HLNEIDLFHCIDPNDSK (UniProt Q15185) | -0.121 | -0.322 |
| PTPRE_P23469_244_CHQYWPDQGCWTYGNIR (UniProt P23469) | -0.00327 | 0.402 |
| PUF60_Q9UHX1_487_NMVDPKDIDDDLEGEVTEECGK (UniProt Q9UHX1) | -0.163 | -0.556 |
| PTPRG_P23470_858_CTADMNITAEHSNHPENK (UniProt P23470) | -0.316 | -0.206 |
| PSMB8_P28062_174_GMGLSMGSMICGWDK (UniProt P28062) | 0.088 | 0.148 |
| PUM3_Q15397_185_VIQCYIQYGNEEQR (UniProt Q15397) | -0.00437 | 0.315 |
| PTRHD1_Q6GMV3_52_DLSQAPFSWPAGALVAQACHAATAALHTHR (UniProt Q6GMV3) | 0.226 | 0.0043 |
| PTPRC_P08575_1261_QDANCVNPLGAPEK (UniProt P08575) | -0.14 | 0.111 |
| PTPN11_Q06124_318_CNNSKPK (UniProt Q06124) | -0.31 | -1.11 |
| PSMD2_Q13200_139_RFAADIISVLAMTMSGERECLK (UniProt Q13200) | -0.228 | -0.21 |
| PUS10_Q3MIT2_29_FCGVDFHAPYK (UniProt Q3MIT2) | 0.0484 | -0.1 |
| PTPN3_P26045_206_QSEAESCYINIAR (UniProt P26045) | -0.18 | -0.0493 |
| PTPN12_Q05209_164_ISCEDEQAR (UniProt Q05209) | 0.159 | 0.15 |
| PSMB3_P49720_19_NCVAIAADRR (UniProt P49720) | 0.0313 | 0.234 |
| PSMD13_Q9UNM6_276_IQLLCLMEMTFTRPANHR (UniProt Q9UNM6) | -0.0798 | 0.233 |
| PTPRC_P08575_367_CDSEILYNNHK (UniProt P08575) | -0.226 | 0.0169 |

A run of entries from the list above, as a working copy:

| Target | probe-labelled cysteine peptide fold change (10 µM) | probe-labelled cysteine peptide fold change (50 µM) |
| --- | --- | --- |
| PTPRG_P23470_858_CTADMNITAEHSNHPENK (UniProt P23470) | -0.316 | -0.206 |
| PSMB8_P28062_174_GMGLSMGSMICGWDK (UniProt P28062) | 0.088 | 0.148 |

(listing goes on)

| Target | probe-labelled cysteine peptide fold change (10 µM) | probe-labelled cysteine peptide fold change (50 µM) |
| --- | --- | --- |
| PTBP3_O95758_68_KIPCDVTEAEIISLGLPFGK (UniProt O95758) | -0.118 | -0.541 |
| PTPN7_P35236_228_ECPEYTVR (UniProt P35236) | -0.101 | -0.0869 |
| PSMF1_Q92530_17_AGLEVLFASAAPAITCR (UniProt Q92530) | -0.0548 | -0.159 |
| PTGES3_Q15185_20_DYVFIEFCVEDSK (UniProt Q15185) | 0.177 | 0.0951 |
| PSPH_P78330_38_ICGVEDAVSEMTR (UniProt P78330) | 0.25 | 0.0933 |
| PTPN7_P35236_324_ARGEVDILGIVCQLR (UniProt P35236) | 0.145 | 0.0571 |
| PSMC2_P35998_236_TDACFIR (UniProt P35998) | -0.0522 | -0.111 |
| PSME4_Q14997_718_QGYTLSCNLLHHLLR (UniProt Q14997) | 0.366 | 0.173 |
| PTPN7_P35236_324_GEVDILGIVCQLR (UniProt P35236) | 0.0959 | -0.0944 |
| PSMD1_Q99460_660_YGAAMALGICCAGTGNK (UniProt Q99460) | -0.0461 | 0.143 |
| PSMC2_P35998_389_SVCTEAGMFAIR (UniProt P35998) | -0.00623 | 0.116 |
| PSME1_Q06323_101_KKGEDEDKGPPCGPVNCNEK (UniProt Q06323) | -0.428 | -1.54 |
| PTPRC_P08575_789_CPDYIIQK (UniProt P08575) | 0.0331 | 0.0627 |
| PSMD14_O00487_299_RHLEEHVDVLMTSNIVQCLAAMLDTVVFK (UniProt O00487) | 0.0447 | -0.0374 |
| PUM3_Q15397_185_VIQCYIQYGNEEQRK (UniProt Q15397) | 0.106 | -0.0249 |
| PSPC1_Q8WXF1_216_CGDGAFLLTTTPR (UniProt Q8WXF1) | -0.00684 | 0.226 |
| PTPN23_Q9H3S7_65_DFEGCSVLR (UniProt Q9H3S7) | -0.197 | -0.201 |
| PTRH1_Q86Y79_72_HCAADLALAPLGDAQLVLLRPR (UniProt Q86Y79) | -0.171 | 0.46 |
